Results deposited as PubChem BioAssay AID504786 (Drosophila RNAi Screening Center, 2011)
Assay: 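Positive regulators of HIF-driven reporter output in Drosophila cells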 (primary screen). Cells: Drosophila S2 cells with a stable HIF luciferase reporter. Reagents: long dsRNA against Drosophila genes, about 0.2 µg dsRNA per well of a 384-well plate. Time to read-out: three days of knock-down, then 20 h of DFO before reading. Conditions: desferrioxamine (DFO) at 100 µM, an iron chelator that mimics hypoxia, for 20 h. Read-out: 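HIF reporter luminescence in cells given 100 µM DFO for 20 h, using the mouse ldh-a hypoxia-response element, scored as per-plate z-scores; higher means greater loss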. Reading the numbers: z-score: higher = stronger loss of HIF reporter signal.
The screen tested about 21,000 reagents; shown is an unselected part of those that have a named target and a result. 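Primary screen; positive scores mean lost reporter signal, so the sign may be inverted from the usual convention.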 The numbers tell different reagents against one gene apart. A plus sign joins genes that one reagent is predicted to hit.

{"predicted target": "ND-39 (GeneID 40272)", "reagent": 1, "z-score, replicate 1": -0.1, "z-score, replicate 2": -0.5}
{"predicted target": "Dhc98D (GeneID 43379)", "reagent": 1, "z-score, replicate 1": -0.4, "z-score, replicate 2": 0.1}
{"predicted target": "CG10177 (GeneID 42772)", "reagent": 1, "z-score, replicate 1": -0.3, "z-score, replicate 2": -0.5}
{"predicted target": "CG14247 (GeneID 43221)", "reagent": 1, "z-score, replicate 1": 0.1, "z-score, replicate 2": -0.2}
{"predicted target": "Arp6 (GeneID 32514)", "reagent": 1, "z-score, replicate 1": 0, "z-score, replicate 2": -0.7}
{"predicted target": "CG6610 (GeneID 38693)", "reagent": 1, "z-score, replicate 1": -0.2, "z-score, replicate 2": -0.1}
{"predicted target": "Gr59f (GeneID 37726)", "reagent": 1, "z-score, replicate 1": -0.2, "z-score, replicate 2": 0.8}
{"predicted target": "CG15107 (GeneID 59128)", "reagent": 1, "z-score, replicate 1": 0.3, "z-score, replicate 2": 0.6}
{"predicted target": "CG12012 (GeneID 38422)", "reagent": 1, "z-score, replicate 1": -0.3, "z-score, replicate 2": -0.6}
{"predicted target": "CG13230 (GeneID 50237)", "reagent": 1, "z-score, replicate 1": 0.1, "z-score, replicate 2": -0.1}
{"predicted target": "CG10347 (GeneID 32141)", "reagent": 1, "z-score, replicate 1": -0.4, "z-score, replicate 2": -0.6}
{"predicted target": "CG13599 (GeneID 42829)", "reagent": 1, "z-score, replicate 1": -0.2, "z-score, replicate 2": -0.7}
{"predicted target": "Klp98A (GeneID 43310)", "reagent": 1, "z-score, replicate 1": 0, "z-score, replicate 2": 0.4}
{"predicted target": "CG13895 (GeneID 38087)", "reagent": 1, "z-score, replicate 1": 0.1, "z-score, replicate 2": 0}
{"predicted target": "CG13123 (GeneID 34303)", "reagent": 1, "z-score, replicate 1": 0.1, "z-score, replicate 2": 0}
{"predicted target": "Ppi1 (GeneID 43581)", "reagent": 1, "z-score, replicate 1": -0.2, "z-score, replicate 2": -0.1}
{"predicted target": "sip2 (GeneID 33979)", "reagent": 1, "z-score, replicate 1": -0.2, "z-score, replicate 2": -0.3}
{"predicted target": "CG7011 + Prp31", "reagent": 1, "z-score, replicate 1": -0.2, "z-score, replicate 2": -0.3}
{"predicted target": "CG8072 (GeneID 39181)", "reagent": 1, "z-score, replicate 1": -0.1, "z-score, replicate 2": -0.5}
{"predicted target": "Cyp4aa1 (GeneID 36752)", "reagent": 1, "z-score, replicate 1": -0.1, "z-score, replicate 2": 0.1}
{"predicted target": "Ccdc85 (GeneID 33509)", "reagent": 1, "z-score, replicate 1": 1.1, "z-score, replicate 2": 0.3}
{"predicted target": "CG9497 (GeneID 33884)", "reagent": 1, "z-score, replicate 1": -0.3, "z-score, replicate 2": -0.4}
{"predicted target": "CG33221 (retired record) (GeneID 2768878)", "reagent": 1, "z-score, replicate 1": 0, "z-score, replicate 2": -0.3}
{"predicted target": "CG12253 (GeneID 47730)", "reagent": 1, "z-score, replicate 1": -0.4, "z-score, replicate 2": -0.1}
{"predicted target": "CG32944 (GeneID 40560)", "reagent": 1, "z-score, replicate 1": -0.3, "z-score, replicate 2": -0.3}
{"predicted target": "CG32944 (GeneID 40560)", "reagent": 2, "z-score, replicate 1": -0.2, "z-score, replicate 2": -0.1}
{"predicted target": "EMC2B (GeneID 42045)", "reagent": 1, "z-score, replicate 1": 0.4, "z-score, replicate 2": 0.7}
{"predicted target": "CG42288 (GeneID 36559)", "reagent": 1, "z-score, replicate 1": -0.4, "z-score, replicate 2": 0.1}
{"predicted target": "CG31221 (GeneID 42325)", "reagent": 1, "z-score, replicate 1": -1.2, "z-score, replicate 2": -0.1}
{"predicted target": "CG31221 (GeneID 42325)", "reagent": 2, "z-score, replicate 1": -1, "z-score, replicate 2": -0.1}
{"predicted target": "CG10280 (GeneID 40740)", "reagent": 1, "z-score, replicate 1": -0.1, "z-score, replicate 2": 0.1}
{"predicted target": "CG31174 (GeneID 318616)", "reagent": 1, "z-score, replicate 1": -0.1, "z-score, replicate 2": -0.1}
{"predicted target": "Neurochondrin (GeneID 40796)", "reagent": 1, "z-score, replicate 1": -0.4, "z-score, replicate 2": -0.4}
{"predicted target": "CG4073 (GeneID 41284)", "reagent": 1, "z-score, replicate 1": -0.1, "z-score, replicate 2": -0.5}
{"predicted target": "Bfc (GeneID 38138)", "reagent": 1, "z-score, replicate 1": -0.3, "z-score, replicate 2": 0}
{"predicted target": "CG17127 (GeneID 34489)", "reagent": 1, "z-score, replicate 1": -0.3, "z-score, replicate 2": -0.3}
{"predicted target": "CG11454 (GeneID 33175)", "reagent": 1, "z-score, replicate 1": -0.1, "z-score, replicate 2": 0}
{"predicted target": "Top3alpha (GeneID 35236)", "reagent": 1, "z-score, replicate 1": -0.2, "z-score, replicate 2": -0.4}
{"predicted target": "RpL12 (GeneID 45329)", "reagent": 1, "z-score, replicate 1": 9.2, "z-score, replicate 2": 6.3}
{"predicted target": "CG5254 (GeneID 31020)", "reagent": 1, "z-score, replicate 1": -0.3, "z-score, replicate 2": 0}

Sorted by “z-score, replicate 2” (high to low): 4 of the entries above
{"predicted target": "Klp98A (GeneID 43310)", "reagent": 1, "z-score, replicate 1": 0, "z-score, replicate 2": 0.4}
{"predicted target": "CG13895 (GeneID 38087)", "reagent": 1, "z-score, replicate 1": 0.1, "z-score, replicate 2": 0}
{"predicted target": "CG10347 (GeneID 32141)", "reagent": 1, "z-score, replicate 1": -0.4, "z-score, replicate 2": -0.6}
{"predicted target": "CG13599 (GeneID 42829)", "reagent": 1, "z-score, replicate 1": -0.2, "z-score, replicate 2": -0.7}
